A short description of this series: Glycosylation of TVPs expressed in K. lactis (LC-MS). More on the design: species or system Kluyveromyces lactis. Particulars: +162 to MW by LC-MS, expression in K. lactis.

With “EPDEICRARMTNKEFTYKSNVCNNCGDQVAACEAECFRNDVYTACHEAQKG (listed as Eratigena agrestis) [WT Ta1b, reference compound]”, the “Glycosylation (Y/N)” value was “Yes”.

In the case of “EPDEICRARMTNKEFTYKSNVCNNCGDQVAACEAECFRNDVYRACHEAQKG (TVP-T43R) [R (Position 43)]”, the “Glycosylation (Y/N)” value is recorded as “No”.

The values are drawn from patent US12648572B2, “Proteolytically stable U1-agatoxin-Ta1b variant polypeptides for pest control” (Vestaron Corporation, priority 2020, dated 2026).
